Measured values from publication PMC9731497, “Identification of potent anti-Cryptosporidium new drug leads by screening traditional Chinese medicines” (PLOS Neglected Tropical Diseases, 2022).
Counter-ions that a name gives are not always drawn.

Test: Host cell viability assay (Cell-Titer Glo)
Details: human

CN1[C@@H]2CC[C@H]1C[C@@H](OC(=O)C(CO)c1ccccc1)C2 (stereo partly shown) [Atropine sulfate, reference compound]
CC50 at 48 h: 17.7 µM
